From patent publication US20170313776A1
No constants are given. Whether binding was seen depends on the method and setting. Binding calls can cover weak binding; strength is not graded here.

Legend:
[1] = target: recombinant cynomolgus PD-1 (cynomolgus); experiment: ELISA, recombinant protein coated
[2] = target: recombinant cynomolgus PD-1 (cynomolgus); experiment: ELISA, detection with anti-human IgG4 heavy chain or anti-human lambda light chain
[3] = target: recombinant cynomolgus PD-1 (cynomolgus); experiment: ELISA on coated recombinant protein, one antibody concentration (not given)
[4] = target: recombinant cynomolgus PD-1 (cynomolgus); experiment: ELISA, recombinant protein coated (FIG. 6)

- binding [1]: binds
- binding [2]: binds
- binding [3]: binds
- binding [4]: binds
B1: anti-PD-1 antibody RG1H10 (IgG, isotype not stated in the assay) (antibody, V domains shown)
VH: QVQLVQSGSELKKPGASVKISCKASGYIFSDNGVNWVRQAPGQGLEWMGWINTKIGNPTYAQGFTGRFVFSLDTSISTTYLQISSLQAGDTAVYYCAREHDYYYGMDVWGQGTTVTVSS
VL: QSALTQPPSASGSPGQSVTISCTGTSSDVGGYNYVSWYQHHPGKAPKLMIYEVSKRPSGVPDRFSGSKSAITASLTISGLLTEDEADYYCSAWDDSLNADVFGGGTKVTVL
